# Screening data, single-dose tests

By UniProt entry, the sequences of proteins in these tests, tags left out.
UniProt P9WFT3, whole entry: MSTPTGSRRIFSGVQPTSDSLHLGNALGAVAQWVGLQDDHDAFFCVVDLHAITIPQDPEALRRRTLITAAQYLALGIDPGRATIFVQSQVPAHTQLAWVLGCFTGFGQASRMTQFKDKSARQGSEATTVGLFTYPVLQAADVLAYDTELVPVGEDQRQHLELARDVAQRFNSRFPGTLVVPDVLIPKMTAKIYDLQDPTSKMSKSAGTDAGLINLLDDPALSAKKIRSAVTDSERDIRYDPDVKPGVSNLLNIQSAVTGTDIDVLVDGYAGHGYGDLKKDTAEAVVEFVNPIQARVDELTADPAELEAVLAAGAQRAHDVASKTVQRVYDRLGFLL
UniProt P9WNZ1, whole entry: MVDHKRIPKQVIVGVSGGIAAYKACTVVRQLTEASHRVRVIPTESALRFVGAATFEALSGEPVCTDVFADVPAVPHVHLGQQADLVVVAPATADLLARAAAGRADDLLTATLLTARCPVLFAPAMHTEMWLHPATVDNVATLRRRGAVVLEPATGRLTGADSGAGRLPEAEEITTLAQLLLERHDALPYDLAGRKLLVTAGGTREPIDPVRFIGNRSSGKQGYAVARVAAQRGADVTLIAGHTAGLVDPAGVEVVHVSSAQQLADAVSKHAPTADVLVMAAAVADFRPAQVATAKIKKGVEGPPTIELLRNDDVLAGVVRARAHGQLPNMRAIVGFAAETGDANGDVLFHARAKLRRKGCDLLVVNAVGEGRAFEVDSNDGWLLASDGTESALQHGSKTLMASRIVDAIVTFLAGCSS

Each number is a percent effect as filed.
How 0% and 100% were set is not recorded. Most values in the screen are low, and negative values occur.
The compounds are a random part of those screened.
Two or more numbers in one place are separate tests of the same structure; such repeats can differ widely.

Leishmania in macrophages: 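Cell assay of Leishmania donovani living inside macrophages; the read-out is not stated. Concentration: 30 µM. Direction is inferred from retests: higher values go with stronger inhibition. Size under these conditions: about 69,000 compounds, about 1,000 of them at 50% or above in at least one test.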
MtTrpRS: 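Enzyme assay of tryptophanyl-tRNA synthetase; the read-out is not stated. Target: Tryptophan-tRNA ligase, Mycobacterium tuberculosis (UniProt P9WFT3). Tested at 10 µM. Direction is not recorded; retested compounds ran higher, which suggests that high means inhibition. About 65,000 compounds were tested under these conditions; 0.098% (about 64) showed 50% or more at least once.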
Toxoplasma: 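Assay of Toxoplasma gondii numbers, read through their beta-galactosidase reporter with a colour substrate. Compounds at 10 µM. Higher reads as fewer parasites (inferred from which compounds were picked for retests). Size under these conditions: about 67,000 compounds, about 260 of them at 50% or above in at least one test.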
CoaBC: 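Enzyme assay of CoaBC with a phosphate dye (Biomol Green) read at 650 nm. Target: Coenzyme A biosynthesis protein CoaBC, Mycobacterium tuberculosis (UniProt P9WNZ1). Concentration: 30 µM. Higher reads as stronger inhibition, judged from the few compounds that gave an IC50. Most strong results did not repeat in a second test. Of about 67,000 compounds tested this way, about 40 (0.06%) reached 50% or more in at least one test.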

CC(C)CN1CCCn2nc(CNC(=O)NC(C)(C)C)cc2C1 gave Leishmania in macrophages: 0.2163%; MtTrpRS: -2.876%; Toxoplasma: 7.268%; CoaBC: 3.704%.
CCc1noc(C(C)N2CCc3c(ncn3C3CC3)C2)n1 (stereo not drawn) gave Leishmania in macrophages: -15.16%; MtTrpRS: -2.067%; Toxoplasma: 3.532%; CoaBC: -0.3501%.
O=C(NCC(O)C1CC1)Nc1cnn(Cc2ccccc2)c1 (stereo not drawn) gave Leishmania in macrophages: 12.25%; MtTrpRS: 3.419%; Toxoplasma: 6.705%; CoaBC: 3.891%.
CN(C)CC1CN(Cc2nnc(C(C)(C)C)o2)CCO1 (stereo not drawn) gave Leishmania in macrophages: 9.866%; MtTrpRS: 10.09%; Toxoplasma: 28.17%; CoaBC: 4.337%.
CC(NC(=O)NCCNc1ncccn1)c1cccs1 (stereo not drawn) gave Leishmania in macrophages: 30.94%; MtTrpRS: 1.199%; Toxoplasma: -0.4235%; CoaBC: 2.651%.
[H][C@]12CCCN(c3ncc(C)cn3)[C@@]1([H])CN(C(C)=O)C2 gave Leishmania in macrophages: -14.25%; Toxoplasma: 15.12%.
Cc1nc(NC2CCCC2)cc(C2CCN2C(=O)c2ccccc2)n1 (stereo not drawn) gave Leishmania in macrophages: 21.1%; MtTrpRS: -0.7525%; Toxoplasma: 26.59%; CoaBC: -8.333%.
CCN(C)c1ncnc2c1CCN(C(=O)N1CCCC1)CC2.O=C(O)C(F)(F)F gave Leishmania in macrophages: -22.16%; Toxoplasma: 2.671%.
CCn1cncc1Cn1ncc2ccccc2c1=O gave Leishmania in macrophages: 12.04%; MtTrpRS: 0.4699%; Toxoplasma: -12.25%; CoaBC: 12.84%.
O=C(NCc1ccon1)c1c(F)cc(Br)cc1F gave Leishmania in macrophages: -26.7%; MtTrpRS: -1.699%; Toxoplasma: -36.71%; CoaBC: 4.639% and 24.74%.
Cc1ccc2c(c1)Oc1ncccc1C(=O)N2 gave Leishmania in macrophages: 4.879%; MtTrpRS: 0.7897%; Toxoplasma: 10.84%; CoaBC: -7.052%.
CN1CCCCC1CCC(=O)NCCCn1ncc2ccccc21 (stereo not drawn) gave Leishmania in macrophages: 16.05%; MtTrpRS: -0.5376%; Toxoplasma: 17.52%; CoaBC: 1.394%.
CC(C)N1CCc2ncn(C(C)C)c2C1C(=O)NCCN1CCCC1 (stereo not drawn) gave Leishmania in macrophages: 12.99%; MtTrpRS: 3.85%; Toxoplasma: -3.346%; CoaBC: -14.15%.
CN(C)Cc1ccc(N2CCN(CCOCC(F)(F)F)CC2)nc1 gave Leishmania in macrophages: 13.06%; MtTrpRS: -2.21%; Toxoplasma: 6.454%; CoaBC: 3.169%.
Cc1c(CS(C)(=O)=O)cccc1NCC1CCCCC1 gave Leishmania in macrophages: -8.489%; MtTrpRS: 5.841%; Toxoplasma: 2.481%; CoaBC: 0.6329%.
CCc1n[nH]c(C2CN(C(=O)Cc3cccs3)CCO2)n1 (stereo not drawn) gave Leishmania in macrophages: 20.89%; MtTrpRS: 0.8518%; Toxoplasma: 8.781%; CoaBC: -11.53%.
Cn1ccc(NC(=O)CN2CCC(Oc3cnccn3)CC2)n1 gave Leishmania in macrophages: 21.66%; MtTrpRS: 4.416%; CoaBC: -1.9%.
Cc1nnc(SCc2ccccn2)s1 gave Leishmania in macrophages: 3.374%; Toxoplasma: -11.44%; CoaBC: -2.822%.
O=C1COc2ccc(C(=O)NS(=O)(=O)c3cc(F)ccc3F)cc2N1 gave Leishmania in macrophages: 17.58%; MtTrpRS: -8.544%; Toxoplasma: -6.9%; CoaBC: 1.434%.
CCOc1ncccc1C(=O)N(C)Cc1ncc(C)c(OC)c1C gave Leishmania in macrophages: -1.03%; MtTrpRS: -0.5473%; Toxoplasma: -2.894%; CoaBC: 6.154%.

For reference, 2 entries once more:

Compound	Leishmania in macrophages	MtTrpRS	Toxoplasma	CoaBC
CCc1noc(C(C)N2CCc3c(ncn3C3CC3)C2)n1 (stereo not drawn)	-15.16%	-2.067%	3.532%	-0.3501%
O=C1COc2ccc(C(=O)NS(=O)(=O)c3cc(F)ccc3F)cc2N1	17.58%	-8.544%	-6.9%	1.434%

Source: ChEMBL document CHEMBL3988442, “University of Dundee, Small-Polar-MMV Screening Library” (2021).